Data reported in PubChem BioAssay AID2662 (National Center for Advancing Translational Sciences (NCATS), 2010).
“And” between values parts separate entries of the source, which are not always exact repeats. Equal entries are not always repeated. Hit rate of the full screen: of about 290,000 compounds, about 110 (0.038%) were called active. The inconclusive results got no clear call from the source; some entries with a clear call stand among them for comparison. The call rests on the fitted dose curve; in most records, active means well fitted inhibition curve with a large enough effect in the polarisation, with a control signal flat (not every such curve was filed as active); inconclusive means small, poorly fitted or top-dose-only effect, or effect the other way, or a change in a side signal; inactive means no such curve, though single readings can be large or run the other way; the % refers to the polarisation. Where the call is inconclusive, the potency comes from a doubtful curve fit. A note “side channel” means that the fit belongs to a control or component signal, not to the main read-out. *1 amine or outer side, *2 acyl side, *3 side chain or, on linkers, in order; H or OH if unused. Where a SMILES comes first, the peptide text is derived from it. Bridges are numbered along the chain shown (N, C = ends). [ ]: non-standard residue; d: D form. The star is where a group is joined. ξ: configuration not given here. ΔAla(Z-3-ureido) = NC(=O)N/C=C(\N)C(=O)O; X1 = NC1=NC(O)CC(C(N[*:1])C(=O)[*:2])N1; ξβ3hOrn = NCCCC(N)CC(=O)*; Dap = NC[CH](N)C(=O)O

Amino acid sequences for entries named in this document (tags omitted).
UniProt Q03164, whole entry, looked up: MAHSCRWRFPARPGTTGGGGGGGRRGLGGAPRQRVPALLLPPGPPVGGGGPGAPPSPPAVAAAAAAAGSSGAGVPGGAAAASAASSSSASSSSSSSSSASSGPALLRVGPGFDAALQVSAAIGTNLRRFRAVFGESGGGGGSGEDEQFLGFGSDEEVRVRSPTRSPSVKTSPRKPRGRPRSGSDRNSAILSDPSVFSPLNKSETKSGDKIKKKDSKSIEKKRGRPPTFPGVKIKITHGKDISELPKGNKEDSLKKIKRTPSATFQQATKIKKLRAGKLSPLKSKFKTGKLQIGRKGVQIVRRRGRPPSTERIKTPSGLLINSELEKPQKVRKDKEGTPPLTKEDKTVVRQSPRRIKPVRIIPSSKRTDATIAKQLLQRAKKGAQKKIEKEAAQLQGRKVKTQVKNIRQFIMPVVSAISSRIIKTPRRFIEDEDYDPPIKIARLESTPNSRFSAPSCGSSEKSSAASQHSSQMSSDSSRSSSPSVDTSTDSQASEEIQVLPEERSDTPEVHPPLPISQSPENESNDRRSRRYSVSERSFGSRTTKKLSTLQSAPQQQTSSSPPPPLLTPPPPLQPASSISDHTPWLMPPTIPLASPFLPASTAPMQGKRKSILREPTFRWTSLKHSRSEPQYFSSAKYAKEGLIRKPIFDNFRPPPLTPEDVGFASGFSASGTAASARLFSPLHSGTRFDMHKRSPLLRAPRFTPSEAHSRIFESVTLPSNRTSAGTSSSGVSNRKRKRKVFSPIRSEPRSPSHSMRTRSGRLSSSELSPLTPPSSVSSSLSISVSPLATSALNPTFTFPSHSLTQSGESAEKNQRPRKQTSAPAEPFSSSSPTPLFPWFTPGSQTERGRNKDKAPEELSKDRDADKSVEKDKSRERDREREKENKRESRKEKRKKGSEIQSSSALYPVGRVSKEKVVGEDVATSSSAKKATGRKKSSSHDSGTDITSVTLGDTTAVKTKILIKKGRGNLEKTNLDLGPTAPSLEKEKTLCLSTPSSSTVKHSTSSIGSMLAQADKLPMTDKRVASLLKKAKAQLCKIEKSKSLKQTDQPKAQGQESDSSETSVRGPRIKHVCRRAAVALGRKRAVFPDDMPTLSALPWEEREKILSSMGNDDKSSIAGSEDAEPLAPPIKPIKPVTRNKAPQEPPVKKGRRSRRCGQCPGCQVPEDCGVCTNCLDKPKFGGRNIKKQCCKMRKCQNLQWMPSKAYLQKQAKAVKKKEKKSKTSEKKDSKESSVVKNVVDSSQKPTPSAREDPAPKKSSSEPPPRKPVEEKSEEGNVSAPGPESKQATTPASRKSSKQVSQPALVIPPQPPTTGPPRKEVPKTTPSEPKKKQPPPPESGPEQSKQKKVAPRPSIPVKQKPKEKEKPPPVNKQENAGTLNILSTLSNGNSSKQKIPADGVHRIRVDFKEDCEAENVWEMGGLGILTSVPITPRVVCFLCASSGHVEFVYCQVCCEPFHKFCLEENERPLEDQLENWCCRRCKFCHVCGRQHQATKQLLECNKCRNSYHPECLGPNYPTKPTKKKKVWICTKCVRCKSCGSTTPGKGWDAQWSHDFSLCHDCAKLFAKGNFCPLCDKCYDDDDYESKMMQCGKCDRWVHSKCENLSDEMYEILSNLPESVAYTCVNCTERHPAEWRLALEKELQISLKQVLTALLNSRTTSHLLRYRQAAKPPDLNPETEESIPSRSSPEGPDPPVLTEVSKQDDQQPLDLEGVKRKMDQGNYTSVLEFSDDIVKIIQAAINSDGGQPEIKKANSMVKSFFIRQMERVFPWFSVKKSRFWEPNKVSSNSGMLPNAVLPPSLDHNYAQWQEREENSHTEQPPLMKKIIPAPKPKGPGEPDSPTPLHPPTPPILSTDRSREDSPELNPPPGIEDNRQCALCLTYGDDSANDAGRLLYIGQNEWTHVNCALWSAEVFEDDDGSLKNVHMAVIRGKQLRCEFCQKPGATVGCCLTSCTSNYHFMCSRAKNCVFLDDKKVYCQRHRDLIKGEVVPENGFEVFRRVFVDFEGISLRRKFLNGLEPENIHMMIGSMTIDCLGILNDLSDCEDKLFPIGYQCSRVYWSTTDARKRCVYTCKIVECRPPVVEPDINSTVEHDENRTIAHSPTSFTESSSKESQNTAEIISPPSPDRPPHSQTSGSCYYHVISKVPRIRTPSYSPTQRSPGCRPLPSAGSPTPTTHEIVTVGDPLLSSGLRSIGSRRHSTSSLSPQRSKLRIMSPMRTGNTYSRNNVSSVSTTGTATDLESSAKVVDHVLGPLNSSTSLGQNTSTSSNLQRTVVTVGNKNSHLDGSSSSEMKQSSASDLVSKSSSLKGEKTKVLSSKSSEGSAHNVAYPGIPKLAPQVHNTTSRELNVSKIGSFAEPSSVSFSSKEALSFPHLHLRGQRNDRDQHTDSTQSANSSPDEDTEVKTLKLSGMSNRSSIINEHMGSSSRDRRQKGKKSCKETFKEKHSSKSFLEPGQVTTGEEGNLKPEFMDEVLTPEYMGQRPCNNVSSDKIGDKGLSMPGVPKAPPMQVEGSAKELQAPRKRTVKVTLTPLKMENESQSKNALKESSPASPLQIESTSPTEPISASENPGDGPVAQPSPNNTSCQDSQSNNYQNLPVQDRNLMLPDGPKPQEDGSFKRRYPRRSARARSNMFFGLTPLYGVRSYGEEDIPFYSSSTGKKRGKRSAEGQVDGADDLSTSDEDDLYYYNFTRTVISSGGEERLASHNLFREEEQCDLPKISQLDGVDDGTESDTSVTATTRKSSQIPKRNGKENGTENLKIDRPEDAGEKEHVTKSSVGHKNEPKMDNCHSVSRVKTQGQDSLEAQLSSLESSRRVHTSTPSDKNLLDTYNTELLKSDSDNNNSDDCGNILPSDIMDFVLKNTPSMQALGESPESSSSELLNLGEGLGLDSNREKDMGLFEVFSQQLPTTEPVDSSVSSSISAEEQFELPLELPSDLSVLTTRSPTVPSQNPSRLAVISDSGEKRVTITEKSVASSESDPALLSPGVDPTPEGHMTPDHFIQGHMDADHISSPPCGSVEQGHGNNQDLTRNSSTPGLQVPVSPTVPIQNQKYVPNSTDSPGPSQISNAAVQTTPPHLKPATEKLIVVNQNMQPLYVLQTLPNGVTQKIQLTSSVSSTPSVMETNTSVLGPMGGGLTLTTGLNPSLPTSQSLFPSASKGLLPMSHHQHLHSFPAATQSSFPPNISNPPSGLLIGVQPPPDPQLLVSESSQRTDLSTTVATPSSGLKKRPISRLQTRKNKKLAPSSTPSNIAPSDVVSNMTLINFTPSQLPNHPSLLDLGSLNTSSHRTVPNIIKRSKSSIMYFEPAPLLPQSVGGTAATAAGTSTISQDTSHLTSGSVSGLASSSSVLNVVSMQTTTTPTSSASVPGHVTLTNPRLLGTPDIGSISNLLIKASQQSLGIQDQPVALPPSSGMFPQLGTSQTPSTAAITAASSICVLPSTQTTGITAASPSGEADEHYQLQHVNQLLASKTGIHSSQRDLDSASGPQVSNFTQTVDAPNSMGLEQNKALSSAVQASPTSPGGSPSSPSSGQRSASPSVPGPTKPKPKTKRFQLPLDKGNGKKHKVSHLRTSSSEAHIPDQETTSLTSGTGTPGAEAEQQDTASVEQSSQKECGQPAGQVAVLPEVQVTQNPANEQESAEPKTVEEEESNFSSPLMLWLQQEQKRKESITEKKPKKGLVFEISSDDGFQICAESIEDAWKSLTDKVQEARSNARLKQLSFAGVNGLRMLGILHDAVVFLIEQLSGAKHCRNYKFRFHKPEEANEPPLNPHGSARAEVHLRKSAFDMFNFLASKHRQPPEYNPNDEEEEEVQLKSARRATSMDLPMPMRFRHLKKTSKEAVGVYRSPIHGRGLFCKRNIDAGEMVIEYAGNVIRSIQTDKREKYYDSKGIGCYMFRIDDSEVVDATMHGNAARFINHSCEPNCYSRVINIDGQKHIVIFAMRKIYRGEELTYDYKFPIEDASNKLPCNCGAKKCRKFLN

target: Histone-lysine N-methyltransferase 2A (Homo sapiens) (UniProt Q03164); assay: qHTS Fluorescence Polarization Assay for Inhibitors of MLL CXXC domain - DNA interaction; settings: MLL-CXXC / FITC-HOXA9 DNA fluorescence polarization; series mostly up to 115 µM
How it was run: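 Steps: dispense CXXC domain solution (7 uM) → pin compounds or unlabeled HOX-A9 DNA control → 5 min ambient → add FLSN-HOX-A9 solution (50 nM) → spin → 30 min ambient → fluorescence polarization. Tris pH 7.5/NaCl/DTT/BSA buffer.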
Potency means the concentration at half of the fitted maximal effect.

| SMILES | Potency |
| --- | --- |
| CNC(=O)/C(C#N)=C/c1c(N2CCN(C)CC2)nc2c(C)cccn2c1=O | inconclusive: 89.1 µM [fluorescent, side channel, single point] |
| NS(=O)(=O)c1ccc2c(c1)C1C=CCC1C(C1CC=CCC1)N2 (stereo not drawn) | inconclusive: 63.1 µM [inhibitor, single point] |
| CCOC(=O)CC1C(=O)NCCN1c1nc2c(C)cccn2c(=O)c1/C=C1\SC(=S)N(C(C)CC)C1=O (stereo not drawn) | inconclusive: 4.47 µM [fluorescent, side channel, full curve] |
| O=C(NCc1ccco1)/C(=C/c1ccc(C(F)(F)F)cc1)c1nc2ccccc2[nH]1 | inconclusive: 44.7 µM [fluorescent, side channel, single point] |
| COc1ccc(C(CCNCc2ccc(N(C)C)cc2)c2ccccc2)cc1 (stereo not drawn) | inconclusive: 63.1 µM [inhibitor, single point] |
| C#CC(C)(C)NC(=O)c1cnc(-c2ccccc2)nc1-c1ccccc1 | inconclusive: 8.91 µM [fluorescent, side channel, single point] |
| Cc1cc(C)c(S(=O)(=O)/N=C2\C=CC(=O)C(Cl)=C2)c(C)c1 | inactive |
| COc1ccc(/C=N/NC(=O)c2nc(Cl)c(Cl)c(N)c2Cl)cc1COc1ccccc1F | inactive |
| N#C/C(=C\c1ccc(-c2ccccc2Cl)o1)C(=O)Nc1nc2ccccc2s1 | inconclusive: 31.6 µM [fluorescent, side channel, single point] |
| O=CN1CCN(C2CC(=O)N(c3ccc(Br)cc3)C2=O)CC1 (stereo not drawn) | inactive |
| CC(=O)c1sc(NC(=O)COc2ccc(Cl)cc2Cl)nc1C | inconclusive: 5.62 µM [fluorescent, side channel, full curve, poor fit] |
| Cc1nc2ccccn2c1C(=O)Nc1ccc(Cl)cc1 | inconclusive: 15.8 µM [fluorescent, side channel, single point] |
| COc1ccc2cc(/C=N/NC(=O)c3c(Cl)cnn3C)c(Cl)nc2c1 | inconclusive: 14.1 µM [inhibitor, single point] |
| O=C(O)c1ccc2nc(-c3ccco3)c(-c3ccco3)nc2c1 | inconclusive: 31.6 µM [inhibitor, partial curve] |
| Oc1c(Br)cc(/C=N/n2c(-c3ccccc3)n[nH]c2=S)cc1Br | inconclusive: 17.8 µM [inhibitor, partial curve] |
| CN(C)/C=N/c1nc(-c2ccc3ccccc3c2)cs1 | inconclusive: 63.1 µM [fluorescent, side channel, single point] |
| Cc1cc(=O)n2nc(N3CCC(C(=O)NCc4ccc(Cl)cc4)CC3)sc2n1 | inactive |
| O=c1c2cc(NC(=S)N3CCC(N4CCCCC4)CC3)ccc2nc2n1CCCCC2 | inconclusive: 6.31 µM [fluorescent, side channel, full curve, poor fit] |
| Cc1cccc2cc3c(N)c(C(=O)N4CCCc5ccccc54)sc3nc12 | inconclusive: 44.7 µM [fluorescent, side channel, partial curve] |
| CCOc1cc(/C=C2/C(=O)N(c3ccccc3)N=C2C)ccc1OC(=O)c1ccco1 | inconclusive: 5.01 µM [inhibitor, partial curve, poor fit] |

| SMILES | Potency |
| --- | --- |
| COc1ccc(/C=N/NC(=O)c2cc(-c3ccccc3)nc3ccccc23)cc1O | inconclusive: 11.2 µM [inhibitor, single point] |
| Nc1cccc(-c2nc3ccc(N)cc3s2)c1 | inactive |
| COC(=O)c1ccc(Oc2ccc(S(=O)(=O)N3CCCCC3)cc2N)cc1 | inconclusive: 70.8 µM [fluorescent, side channel, single point] |
| N#C/C(=C\c1ccc(-c2ccc(C(=O)O)cc2)o1)c1nc2ccccc2[nH]1 | inconclusive: 1.12 µM [fluorescent, side channel, full curve] |
| CSc1ccc(/C=N/N2CCN(Cc3ccccc3)CC2)cc1 | inconclusive: 15.8 µM [inhibitor, single point] |
| C(=N\Nc1nc(N2CCOCC2)nc(N2CCOCC2)n1)/c1ccco1 | inconclusive: 35.5 µM [inhibitor, single point] |
| O=C(O)CCN1C(=O)C2C3CC(C2C1=O)C1C(c2ccccc2)c2sc(=O)[nH]c2SC31 (stereo not drawn) | inconclusive: 15.8 µM [fluorescent, side channel, single point] |
| COc1ccc(C2=Nn3c(nnc3-c3ccc(OC)cc3)SC2)cc1 | inactive |
| Cc1nnc(C)n1/N=C/c1cc(Br)cc(Br)c1O | inconclusive: 39.8 µM [inhibitor, single point] |
| COc1ccc(-n2nnnc2-c2ccc(S(C)(=O)=O)cc2Cl)cc1 | inconclusive: 31.6 µM [fluorescent, side channel, single point] |
| O=C(CSc1nnc(-c2ccco2)o1)Nc1cccc([N+](=O)[O-])c1 | inconclusive: 11.2 µM [fluorescent, side channel, single point] |
| O=C1/C(=C/c2ccc(C(=O)O)cc2)CCC/C1=C\c1ccc(C(=O)O)cc1 | inactive |
| CC(CCc1ccc(O)cc1)NCCC(c1ccccc1)c1ccccc1 (stereo not drawn) | inconclusive: 39.8 µM [quencher, side channel, partial curve, poor fit] |
| Cc1ccc(N2CCN(C(=O)c3ccccc3NC(=O)C3CCCCC3C(=O)O)CC2)cc1 (stereo not drawn) | inconclusive: 14.1 µM [inhibitor, single point] |
| O=C(Nc1ccccc1O)c1ccc(NC(=O)C2CC2)cc1 | inconclusive: 14.1 µM [quencher, side channel, single point] |
| O=C1OC(c2cccs2)=N/C1=C\c1ccc(-c2cccc(Cl)c2)o1 | inconclusive: 31.6 µM [fluorescent, side channel, partial curve] |
| CC(C)(C)NCC(O)(c1ccc(Cl)cc1)c1ccc(Cl)cc1 | inactive |
| COC(=O)c1sc(NC(=O)/C=C/c2ccc(C)o2)nc1C | inconclusive: 1.41 µM [fluorescent, side channel, full curve, poor fit] |
| Cc1cccc(N2CC(C(=O)Nc3nnc(SCc4ccccn4)s3)CC2=O)c1 (stereo not drawn) | inconclusive: 8.91 µM [fluorescent, side channel, full curve] |
| CCCC(=O)NCCc1c2n(c3ccc(OC)cc13)CCCc1ccccc1-2 | inconclusive: 10 µM [inhibitor, single point] |

Exported with bars between the fields: entries from further up.
SMILES | Potency
O=C1/C(=C/c2ccc(C(=O)O)cc2)CCC/C1=C\c1ccc(C(=O)O)cc1 | inactive
CC(CCc1ccc(O)cc1)NCCC(c1ccccc1)c1ccccc1 (stereo not drawn) | inconclusive: 39.8 µM [quencher, side channel, partial curve, poor fit]

Next entries follow:

| SMILES | Potency |
| --- | --- |
| Cc1cc(C)c(S(=O)(=O)c2cccc(C)c2C)c(=O)[nH]1 | inconclusive: 31.6 µM [fluorescent, side channel, partial curve] |
| CCOC(=O)C1=C(CC)Nc2ccccc2N=C1NC(=O)c1cccc(S(=O)(=O)N2CCCC2)c1 | inconclusive: 11.2 µM [inhibitor, single point] |
| O=C1c2ccc3c4c(ccc(c24)C(=O)N1CCCCO)C(=O)N(CCCCO)C3=O | inconclusive: 12.6 µM [quencher, side channel, full curve] |
| OC1(c2ccccc2Cl)NN=C2CCCCCN21 (stereo not drawn) | inactive |
| N#Cc1ccccc1NC(=O)CSC1=Nc2ccccc2C2CC=NN12 (stereo not drawn) | inactive |
| Cc1cc(C)c(/C=C2\C(=O)Nc3ccccc32)[nH]1 | inconclusive: 31.6 µM [fluorescent, single point] and inconclusive: 31.6 µM [fluorescent, side channel, partial curve] and inconclusive: 39.8 µM [fluorescent, side channel, partial curve] |
| CC1=C(C(=O)Nc2ccccc2C)C2(CCCCC2)C(C(N)=O)C(=S)N1 (stereo not drawn) | inconclusive: 2.82 µM [quencher, side channel, full curve] |
| C=CCOc1cccc(CNCCCN2CCOCC2)c1 | inactive |
| CC(=O)NNc1nc(-c2ccc(NC(C)=O)cc2)cs1 | inconclusive: 79.4 µM [fluorescent, side channel, single point] |
| Fc1ccc(OCc2cc(-c3ccccc3)no2)cc1 | inactive |
| NCCCC(N)CC(=O)NC1CNC(=O)C(C2CC(O)N=C(N)N2)NC(=O)/C(=C/NC(N)=O)NC(=O)C(CO)NC(=O)C(CO)NC1=O (stereo not drawn) (ξβ3hOrn-[Dap]SS[ΔAla(Z-3-ureido)][X1]; lactam 1-C; configuration not given here) | inconclusive: 14.1 µM [inhibitor, full curve, poor fit] |
| COc1cc2c3nnc(-c4ccccc4)c-3cn(Cc3ccc(F)cc3)c2cc1OC | inconclusive: 39.8 µM [fluorescent, side channel, partial curve] |
| C=CCNCc1cc(=O)n2c(-c3ccccc3)csc2n1 | inconclusive: 31.6 µM [inhibitor, single point] |
| CC1(C)Cc2cccc(OCC(=O)Nc3ccccc3C(F)(F)F)c2O1 | inconclusive: 2.82 µM [quencher, side channel, full curve, poor fit] |
| Cc1ccc(-c2nnc(SCC(=O)NC3CCS(=O)(=O)C3)nc2-c2ccc(C)cc2)cc1 (stereo not drawn) | inconclusive: 1.58 µM [fluorescent, side channel, full curve, poor fit] |
| CCN(CC)c1ccc(/C=C(\C#N)C(N)=O)cc1 | inconclusive: 44.7 µM [fluorescent, side channel, single point] |
| CS(=O)(=O)n1nc(-c2ccc(Cl)cc2)nc1N | inactive |
| Cc1nnc(C)n1/N=C/c1c(O)ccc2ccccc12 | inconclusive: 63.1 µM [fluorescent, side channel, single point] |

Two records picked at random from the list so far, as already listed:

| SMILES | Potency |
| --- | --- |
| CC1=C(C(=O)Nc2ccccc2C)C2(CCCCC2)C(C(N)=O)C(=S)N1 (stereo not drawn) | inconclusive: 2.82 µM [quencher, side channel, full curve] |
| CCN(CC)c1ccc(/C=C(\C#N)C(N)=O)cc1 | inconclusive: 44.7 µM [fluorescent, side channel, single point] |
